ChEMBL document CHEMBL3108680, “Diversity-oriented synthesis of α-aminophosphonates: a new class of potential anticancer agents” (Eur J Med Chem, 2013)

Test system: Jurkat
Experiment: Cytotoxicity against human Jurkat cells after 48 hrs by MTT assay
Format: functional, cell-based
How it was run: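 Jurkat and Colo 320DM grown in RPMI 1640 with 10% FBS and 1% ampicillin; A549 in 90% DMEM with 10% FBS. Cells seeded at line-dependent densities, held 24 h compound-free, then exposed 48 h to six 2-fold dilutions (top […]). MTT (10 mg/ml PBS solution) added for 4 h at 37 °C; DMSO-solubilized formazan read at 570 nm. Three runs in triplicate.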

Q: `CC/C(=C(\c1ccccc1)c1ccc(OCCN(C)C)cc1)c1ccccc1` [TAMOXIFEN] was tested. Which IC50 did it give?
A: The IC50 was 8.3 µM.
